{"source": "PubChem BioAssay AID743454 | Peter MacCallum Cancer Centre – 2014", "aim": "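Genes whose loss kills vorinostat-resistant colon cancer cells under vorinostat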 (primary screen)", "system": "human HCT116-VR colon cancer cells, selected for vorinostat resistance", "reagents": "siRNA pool against human genes, 40 nM siRNA pool", "duration": "vorinostat for 24 h, read-out about 72 h after transfection", "challenge": "vorinostat at 2.5 µM final", "detection": "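Cell viability by CellTiter-Fluor and caspase 3/7 activity by luminescence, each scaled to mock wells per plate, duplicates averaged, then robust z-scored over all plates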", "scale": "viability robust z-score: higher = more viable cells than screen typical; caspase robust z-score: higher = more caspase 3/7 activity than screen typical", "hit rule": "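Hits are knock-downs in viability class RV1/RV2 or caspase class CA1/CA2, excluding ones that killed cells in the no-drug cell-count arm; hits then retested with single siRNAs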", "note": "Here is an unselected part of about 18,000 reagents tested. In the full data, 450 (2.5%) got an active call. 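Single biological run; no consistent viability z cut-off exists, so the class columns, not z-scores, define the calls.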"}
{"Gene":"LRP11","viability hit class":"no change","caspase hit class":"no change","viability robust z-score":-1.64,"caspase robust z-score":-0.29,"Call":"inactive"}
{"Gene":"ZBTB39","viability hit class":"no change","caspase hit class":"no change","viability robust z-score":0.78,"caspase robust z-score":0.71,"Call":"inactive"}
{"Gene":"TSC22D4","viability hit class":"no change","caspase hit class":"no change","viability robust z-score":1.1,"caspase robust z-score":-0.38,"Call":"inactive"}
{"Gene":"UPK1A","viability hit class":"no change","caspase hit class":"no change","viability robust z-score":-0.06,"caspase robust z-score":-0.88,"Call":"inactive"}
{"Gene":"ZFYVE26","viability hit class":"no change","caspase hit class":"no change","viability robust z-score":0.42,"caspase robust z-score":5.05,"Call":"inactive"}
{"Gene":"TOP3B","viability hit class":"no change","caspase hit class":"no change","viability robust z-score":-0.35,"caspase robust z-score":0.29,"Call":"inactive"}
{"Gene":"LTB","viability hit class":"no change","caspase hit class":"no change","viability robust z-score":1.11,"caspase robust z-score":0.03,"Call":"inactive"}
{"Gene":"GLT1D1","viability hit class":"no change","caspase hit class":"no change","viability robust z-score":1.69,"caspase robust z-score":-0.21,"Call":"inactive"}
{"Gene":"JUNB","viability hit class":"no change","caspase hit class":"no change","viability robust z-score":1.51,"caspase robust z-score":-0.24,"Call":"inactive"}
{"Gene":"PIP5K1A","viability hit class":"no change","caspase hit class":"no change","viability robust z-score":-0.15,"caspase robust z-score":-0.73,"Call":"inactive"}
{"Gene":"ASNSD1","viability hit class":"no change","caspase hit class":"no change","viability robust z-score":-0.55,"caspase robust z-score":0.48,"Call":"inactive"}
{"Gene":"LCNL1","viability hit class":"no change","caspase hit class":"no change","viability robust z-score":-1.56,"caspase robust z-score":4.66,"Call":"inactive"}
{"Gene":"OR5AR1","viability hit class":"no change","caspase hit class":"no change","viability robust z-score":-0.7,"caspase robust z-score":2.64,"Call":"inactive"}
{"Gene":"TRNAU1AP","viability hit class":"no change","caspase hit class":"no change","viability robust z-score":-1.32,"caspase robust z-score":-0.37,"Call":"inactive"}
{"Gene":"ANKH","viability hit class":"no change","caspase hit class":"no change","viability robust z-score":-1.92,"caspase robust z-score":-0.22,"Call":"inactive"}
{"Gene":"TEAD3","viability hit class":"no change","caspase hit class":"no change","viability robust z-score":-0.44,"caspase robust z-score":-0.36,"Call":"inactive"}
{"Gene":"FZD6","viability hit class":"no change","caspase hit class":"no change","viability robust z-score":0.74,"caspase robust z-score":-0.4,"Call":"inactive"}
{"Gene":"APLN","viability hit class":"no change","caspase hit class":"no change","viability robust z-score":-1.8,"caspase robust z-score":-0.46,"Call":"inactive"}
{"Gene":"EXOC6","viability hit class":"no change","caspase hit class":"no change","viability robust z-score":0.54,"caspase robust z-score":-0.83,"Call":"inactive"}
{"Gene":"FURIN","viability hit class":"no change","caspase hit class":"no change","viability robust z-score":0.2,"caspase robust z-score":-0.36,"Call":"inactive"}
{"Gene":"HSPA4","viability hit class":"no change","caspase hit class":"no change","viability robust z-score":0.94,"caspase robust z-score":0.12,"Call":"inactive"}
